Results reported in patent US20190225687A1 (I MAB, published 2019).
Positions count from the first letter of the chain named. These are yes or no findings as the source states them, for the method shown. Some results given as binding are weak or reduced against the parent protein; the word gives no strength.

B1: 147H-6 (antibody, V domains shown)
VH: QVQLVQSGAEVKKPGASVKVSCKASGYTFTNYWLGWIKQAPGQGLEWIGDIYPGGDYINYNEKFKGKATLTADTSISTAYMELSRLRSDDTAVYYCARPNLPGDYWGQGTTVTVSS
VL: DIVMTQSPLSLPVTPGEPASISCRSSKSLLHSNGITYLYWYLQKPGQSPQLLIYQVSNLASGVPDRFSGSGSGTDFTLKISRVEAEDVGVYYCAQNLELPWTFGGGTKVEIK
B2: 147H-7 (antibody, V domains shown)
VH: B1 VH with Y95F
VL: B1 VL
B3: 147H-14 (antibody, V domains shown)
VH: B1 VH with Q1E, Y95F
VL: B1 VL
B4: 147H-13 (antibody, V domains shown)
VH: B1 VH with Q1E
VL: B1 VL
notes: also called 147H4-13

Target: T1, LAG3 antigen of the Octet RED96 runs (UniProt P18627 23-450, limits assumed)
T1 sequence (looked up): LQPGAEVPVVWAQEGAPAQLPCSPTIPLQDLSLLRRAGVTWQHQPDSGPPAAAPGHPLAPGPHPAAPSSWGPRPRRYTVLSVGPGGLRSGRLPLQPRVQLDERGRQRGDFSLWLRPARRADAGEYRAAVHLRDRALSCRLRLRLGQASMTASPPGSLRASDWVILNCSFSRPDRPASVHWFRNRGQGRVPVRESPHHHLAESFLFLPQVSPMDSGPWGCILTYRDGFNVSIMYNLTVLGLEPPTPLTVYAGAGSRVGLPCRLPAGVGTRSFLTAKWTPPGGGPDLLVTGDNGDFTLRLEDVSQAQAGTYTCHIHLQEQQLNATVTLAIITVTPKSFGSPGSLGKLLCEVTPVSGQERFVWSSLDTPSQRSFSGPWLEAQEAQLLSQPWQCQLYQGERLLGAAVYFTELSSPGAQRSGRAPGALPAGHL
Experiment: BLI, Octet RED96, full kinetics

binding, binds:
B1
B2
B3
B4

Target: T1, LAG3 antigen of the Octet RED96 runs
Experiment: BLI, Octet RED96, affinity ranking

binding, binds:
B1
B2
B3
B4
